No constants are given. Whether binding was seen depends on the method and setting. For some of these results: In cells and extracts the contact can be indirect. Some binding calls cover weakened binding; strength is not graded here.
Assays:
KRAS-GST = KRAS-GST (UniProt P01116); assay: pull-down; GST pull-down in an E. coli system: purified RNF141 or 2H-RNF141 with KRAS-GST or GST; both purified
[1] = biological target: RNF141 (RING finger protein 141) in colorectal cancer cells (human (endogenous in HCT116 and other CRC cell lines)) (UniProt Q8WVD5); assay: co-IP; IP from CRC cells with RNF141 antibody (mouse derived), KRAS antibody (rabbit derived) or LYPLA1 antibody, Western blot for the partner; control IgG
KRAS BiFC fusion = KRAS BiFC fusion (UniProt P01116); assay: split reporter; BiFC in HCT116 and HT29 cells; bJunVN173 and bFosVC155 positive control, VN173 and VC155 negative control

Amino acid sequences for entries named in this document (tags omitted). A change or cut given only in a name is not applied to a line headed by its entry.
UniProt Q8WVD5: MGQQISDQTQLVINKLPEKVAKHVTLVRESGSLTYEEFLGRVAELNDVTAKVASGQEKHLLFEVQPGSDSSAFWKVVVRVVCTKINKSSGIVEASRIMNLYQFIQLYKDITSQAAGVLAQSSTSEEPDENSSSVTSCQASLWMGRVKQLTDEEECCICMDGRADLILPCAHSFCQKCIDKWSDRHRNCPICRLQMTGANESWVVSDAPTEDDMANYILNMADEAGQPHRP
UniProt O75608: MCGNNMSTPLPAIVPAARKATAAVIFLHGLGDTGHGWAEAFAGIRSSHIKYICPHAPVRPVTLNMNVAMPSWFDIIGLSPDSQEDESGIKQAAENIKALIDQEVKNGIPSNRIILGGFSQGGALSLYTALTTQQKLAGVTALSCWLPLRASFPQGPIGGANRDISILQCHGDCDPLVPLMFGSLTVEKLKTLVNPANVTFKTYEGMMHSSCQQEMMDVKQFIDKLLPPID

binding (KRAS-GST) | Substance | also measured
no binding | 2H-RNF141 (RNF domain, 145-230aa) (from UniProt Q8WVD5 145-230) (domain or fragment) | –
– | LYPLA1 (Lysophospholipase1), also known as APT1 (acyl-protein thioesterase 1) (from UniProt O75608 1-230) (enzyme) | binding [1]: binds
– | RNF141 BiFC fusion (from UniProt Q8WVD5 1-230) | binding (KRAS BiFC fusion): binds
binds | full-length RNF141, recombinant (from UniProt Q8WVD5 1-230) | –

Source: article PMC8484013
